Paper PMC5087665
These are yes or no findings as the source states them, for the method shown. In cells and extracts the contact can be indirect.

Protein sequences, listed by entry. Tags and fused reporters are not part of them. Residues count along the entry.
UniProt P01732, residues 22-235: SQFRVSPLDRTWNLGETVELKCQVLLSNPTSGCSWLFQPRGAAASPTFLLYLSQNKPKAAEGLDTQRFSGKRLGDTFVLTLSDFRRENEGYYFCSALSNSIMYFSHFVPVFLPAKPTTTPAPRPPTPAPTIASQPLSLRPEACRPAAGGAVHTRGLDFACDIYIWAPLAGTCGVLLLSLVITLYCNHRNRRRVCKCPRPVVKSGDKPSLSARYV
UniProt P01589, residues 22-272: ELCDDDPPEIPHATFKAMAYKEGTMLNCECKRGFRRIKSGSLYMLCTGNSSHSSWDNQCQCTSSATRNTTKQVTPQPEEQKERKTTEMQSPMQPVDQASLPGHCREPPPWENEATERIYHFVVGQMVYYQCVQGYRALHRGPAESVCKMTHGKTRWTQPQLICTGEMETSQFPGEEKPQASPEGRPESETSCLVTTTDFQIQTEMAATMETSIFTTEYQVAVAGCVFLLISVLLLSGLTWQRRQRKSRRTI
UniProt Q92973: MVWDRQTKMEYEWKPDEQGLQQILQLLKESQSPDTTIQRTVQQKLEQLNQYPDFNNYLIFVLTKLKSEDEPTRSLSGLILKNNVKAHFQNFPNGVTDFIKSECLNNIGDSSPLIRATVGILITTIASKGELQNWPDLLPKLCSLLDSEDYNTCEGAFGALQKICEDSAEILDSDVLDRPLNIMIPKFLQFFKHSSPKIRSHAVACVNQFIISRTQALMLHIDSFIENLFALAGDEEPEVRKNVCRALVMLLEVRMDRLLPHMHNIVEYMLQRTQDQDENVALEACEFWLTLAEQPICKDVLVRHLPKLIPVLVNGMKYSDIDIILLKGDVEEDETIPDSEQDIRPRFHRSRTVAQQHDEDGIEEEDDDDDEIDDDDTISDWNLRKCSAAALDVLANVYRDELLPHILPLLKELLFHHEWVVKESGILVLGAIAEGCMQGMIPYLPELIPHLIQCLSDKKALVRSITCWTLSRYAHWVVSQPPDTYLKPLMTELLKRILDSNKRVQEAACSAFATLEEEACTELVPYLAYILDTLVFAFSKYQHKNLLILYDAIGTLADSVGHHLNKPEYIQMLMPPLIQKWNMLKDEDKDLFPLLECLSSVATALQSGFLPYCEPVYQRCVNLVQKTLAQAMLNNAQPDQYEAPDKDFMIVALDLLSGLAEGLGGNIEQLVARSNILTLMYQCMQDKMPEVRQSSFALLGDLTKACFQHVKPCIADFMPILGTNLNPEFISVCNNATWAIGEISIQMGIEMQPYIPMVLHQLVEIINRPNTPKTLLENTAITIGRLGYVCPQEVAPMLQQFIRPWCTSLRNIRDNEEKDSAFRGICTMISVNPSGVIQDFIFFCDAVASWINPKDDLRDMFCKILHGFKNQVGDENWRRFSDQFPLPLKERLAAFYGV

Experiments:
CD8a–GFP = CD8a–GFP (UniProt P01732); experiment: co-IP; Fig. 3D,E: HEK293T lysates expressing GFP-tagged chimeras, immunoprecipitation with an anti-GFP antibody, blotted for endogenous TNPO1 and GFP
[1] = target: IL2Rα–GFP (interleukin 2 receptor α subunit) (UniProt P01589); experiment: as above

binding (CD8a–GFP): no binding
binding [1]: no binding
Substance: transportin1 (TNPO1), endogenous in HEK293T cells (from UniProt Q92973 1-898)
